From patent publication US10149855B2, “Gamma-secretase inhibition reduce APOC3 levels and plasma triglycerides” (THE TRUSTEES OF COLUMBIA UNIVERSITY IN THE CITY OF NEW YORK, priority 2014, dated 2018)

System: Lean mice, diet induced obese (DIO) mice, and leptin-deficient obese (ob/ob) mice
Assay: Weight, glucose and insulin of mice administered GSI (DBZ) or vehicle
Format: in vivo
Description: Lean mice, diet induced obese (DIO) mice, and leptin-deficient obese (ob/ob) mice were administered either vehicle or GSI. [table]

With `C[C@H](NC(=O)Cc1cc(F)cc(F)c1)C(=O)N[C@@H]1C(=O)N(C)c2ccccc2-c2ccccc21` [GSI, N-[(1S)-2-[[(7S)-6,7-dihydro-5-methyl-6-oxo-5H-dibenz[b,d]azepin-7-yl]amino]-1-methyl-2-oxoethyl]-3,5-difluoro-benzeneacetamide] the Weight (DIO mice) was 33 ± 0.7 grams, the Weight (lean mice) was 22 ± 0.6 grams and the Weight (ob/ob mice) was 48 ± 0.9 grams.
